Values from PubChem BioAssay AID652243 (Drosophila RNAi Screening Center, 2013)
Assay: 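Knock-downs that decrease or increase androgen receptor reporter signal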 (primary screen). Cells: Drosophila S2R+ cells. Knock-down reagent: long dsRNA against Drosophila genes. Time to read-out: 72 h (48 h, then 24 h hormone). Conditions: synthetic androgen R1881 at 10 nM for 24 h. Detection: 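Firefly light from an androgen-responsive reporter and Renilla control light per well, raw and unnormalised, for each of two replicates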. Scale: firefly reporter light: higher = more light from androgen-responsive reporter; Renilla control light: higher = more constitutive control signal (cell number, transfection). Hit rule: 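Across duplicate plates, a knock-down whose log firefly/Renilla ratio shifted a set fold down or up from the GFP/LacZ control mean was a hit; the downward cut appears as both 1.5 and 3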. Calls: active = hit: reporter lowered or raised; inactive = no hit.
The screen tested about 24,000 reagents; below is an unselected part of those with a known target gene and a result. Over the whole deposit, 246 (1%) got an active call. 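Plates not normalised; calls are printed but the firefly/Renilla ratio behind them is not deposited; fold cut for lowering reported inconsistently.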 The raw values are shown without normalisation. The numbers tell different reagents against one gene apart. A plus sign joins genes that one reagent is predicted to hit. Not given: the amount of reagent.

The first 3 entries as a preview:
| Target gene | dsRNA no. | firefly reporter light, replicate 1 | firefly reporter light, replicate 2 | Renilla control light, replicate 1 | Renilla control light, replicate 2 | call |
| --- | --- | --- | --- | --- | --- | --- |
| CG10038 | 1 | 67989 | 62891 | 5.69e5 | 6.24e5 | inactive |
| RSG7 | 1 | 6.21e5 | 4.37e5 | 4.90e6 | 3.60e6 | inactive |
| RSG7 | 2 | 4.05e5 | 8.36e5 | 1.03e6 | 1.52e6 | inactive |

Main list, repeating the preview:
| Target gene | dsRNA no. | firefly reporter light, replicate 1 | firefly reporter light, replicate 2 | Renilla control light, replicate 1 | Renilla control light, replicate 2 | call |
| --- | --- | --- | --- | --- | --- | --- |
| CG10038 | 1 | 67989 | 62891 | 5.69e5 | 6.24e5 | inactive |
| RSG7 | 1 | 6.21e5 | 4.37e5 | 4.90e6 | 3.60e6 | inactive |
| RSG7 | 2 | 4.05e5 | 8.36e5 | 1.03e6 | 1.52e6 | inactive |
| CG3402 | 1 | 1.15e6 | 8.98e5 | 1.94e6 | 1.68e6 | inactive |
| PIG-H + Kmn2 | 1 | 3.87e5 | 93245 | 14690 | 2.00e5 | inactive |
| CG11836 | 1 | 91579 | 93910 | 5.77e5 | 5.13e5 | inactive |
| CG12490 + CG30265 | 1 | 6.39e5 | 1.03e6 | 9.12e5 | 7.88e5 | inactive |
| tty | 1 | 1.46e5 | 1.68e5 | 7.56e5 | 8.92e5 | inactive |
| tty | 2 | 3.30e5 | 2.88e5 | 6.53e5 | 7.19e5 | inactive |
| Dhc1 | 1 | 1.36e5 | 2.40e5 | 2.81e6 | 2.78e6 | active |
| CG17650 | 1 | 1.25e5 | 1.00e5 | 8.91e5 | 9.79e5 | inactive |
| CG11379 | 1 | 1.11e5 | 1.11e5 | 2.85e6 | 2.34e6 | inactive |
| meru | 1 | 2.27e5 | 1.65e5 | 2.39e5 | 1.61e5 | inactive |
| meru | 2 | 2.54e5 | 2.28e5 | 2.45e6 | 1.84e6 | inactive |
| Nepl11 | 1 | 3.67e5 | 3.20e5 | 2.59e6 | 2.60e6 | inactive |
| CG32579 | 1 | 6.19e5 | 5.10e5 | 2.99e6 | 3.02e6 | inactive |
| CG30371 | 1 | 2.50e5 | 1.81e5 | 1.46e6 | 1.41e6 | inactive |
| CG17906 + alien | 1 | 8.58e5 | 7.76e5 | 1.07e6 | 9.45e5 | inactive |
| CG8531 | 1 | 1.25e6 | 1.03e6 | 2.39e6 | 2.54e6 | inactive |
| CG32812 | 1 | 2.10e5 | 2.37e5 | 2.52e6 | 2.22e6 | inactive |
| zen | 1 | 62711 | 1.19e5 | 1.83e6 | 1.47e6 | inactive |
| zen | 2 | 2.53e5 | 1.74e5 | 7.85e5 | 5.37e5 | inactive |
| Act87E | 1 | 4.01e5 | 3.16e5 | 3.57e5 | 2.60e5 | inactive |
| Act87E | 2 | 7.53e5 | 7.79e5 | 1.36e6 | 1.37e6 | inactive |
